The values below come from PubChem BioAssay AID1487 (National Center for Advancing Translational Sciences (NCATS), 2009).

This is one part of the list. The main result of the screen is listed elsewhere. These columns were measured beside it and carry no call. Most of these compounds were active or inconclusive in the main read-out, so they are no random draw. The note in brackets gives the kind of curve behind each potency; many fits are weak.

The nature of the assay: qHTS Assay for Modulators of Lamin A Splicing. Particulars: HeLa LMNA splicing GFP/RFP minigene ratio, 48 h. Summed up: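 Read-out is the ratio of GFP to DsRed2 object intensity, acquired by 488 nm laser-scanning cytometry on HeLa lamin A-EGFP minigene reporter cells. Compound incubation 48 hrs at 37 °C in Opti-MEM with 2% FBS; DMSO 0.5% final.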
Where [1] appears, read: measured here: RFP viability control channel.
[2] abbreviates: measured here: GFP splicing reporter channel.

On to `CCOC(=O)c1cnn(Cc2ccc(C)cc2)c1N`, for which, under setting [1], the AC50 is 17.8 µM [falling, partial curve, poor fit].

In the case of `Cc1ccc2nc(C3CCN(S(=O)(=O)c4ccc5ccccc5c4)CC3)[nH]c2c1`, the AC50 is 11.2 µM [rising, partial curve] under setting [2] and 17.8 µM [rising, partial curve] under setting [1].

As for `CCCCOC(=O)C1[C@H]2C(=O)N(CCc3ccccc3)C[C@]23C=C[C@H]1O3` (stereo not given in full), the AC50 under setting [1] was 0.0794 µM [falling, full curve, poor fit].

For the compound `CCOc1ccc(NC(=O)C2CCC(N3C(=O)C4CC=CCC4C3=O)CC2)cc1` (stereo not given), the AC50 reads like this: under setting [2], 14.1 µM [rising, single point]; under setting [1], 20 µM [rising, single point].

As to `COc1ccccc1-c1nnc2sc(-c3ccc(N(C)C)cc3)nn12`, under setting [2], the AC50 is 2.24 µM [falling, full curve, poor fit].

`CC(C)(C)OC(=O)NCCc1nnc(SCc2ccccc2Cl)o1`: the AC50 under setting [1] is 20 µM [rising, partial curve, poor fit].

On to `CCOC(=O)c1c(-c2ccc(C)cc2)csc1NC(=S)NC(=O)c1ccccc1`, for which, under setting [1], the AC50 is 6.31 µM [rising, full curve].

Consider `Cc1ccc(NC(=O)CSc2nc3ccc(NC(=O)COc4ccc(C)cc4)cc3s2)cc1`, for which the AC50 under setting [2] is 17.8 µM [falling, partial curve] and the half-maximal activity concentration (AC50) under setting [1] was 11.2 µM [falling, partial curve].

Regarding `O=C(Cn1nc(CNc2ccc(Cl)cc2)[n+]2c1CCCCC2)c1ccc(Br)cc1`, the AC50 under setting [1] is 31.6 µM [rising, partial curve, poor fit].

As for `Cc1ccc(NC(=O)c2c(O)c3ccccc3n(C)c2=O)nc1`, under setting [1], the half-maximal activity concentration (AC50) is 35.5 µM [rising, single point].

With `CO/N=C/C(NC(=O)c1ccc(C(F)(F)F)cc1)C(=O)OC` (stereo not given), the AC50 under setting [2] is 0.00501 µM [falling, full curve, poor fit].

For `Cc1cc(C)n(C(=O)CNC(=O)CCc2ccccc2)n1`, under setting [1], the AC50 was 0.0316 µM [falling, full curve, poor fit].

`Brc1ccc(C2=CSC3=NCCN23)cc1`: under setting [2], the AC50 was 0.282 µM [falling, full curve].

With `O=C(Nc1nnc(C2CC(=O)N(c3ccc(Cl)cc3)C2)s1)c1ccco1` (stereo not given), the AC50 under setting [1] was 0.02 µM [falling, full curve].

Consider `COc1cc(NC(=S)Nc2ccccn2)cc(OC)c1`, for which the AC50 is, setting by setting: under setting [2], 4.47 µM [rising, partial curve, poor fit]; under setting [1], 0.0251 µM [rising, full curve, poor fit].

As for `O=C(Nc1ccc2c(c1)C(=O)N(CC1CCCO1)C2=O)c1cccc(Br)c1` (stereo not given), the AC50 under setting [2] is 17.8 µM [rising, partial curve, poor fit].

`COc1ccc(/C=N/NC(=O)C2(C)NC(C)(C)Cc3ccccc32)cc1` (stereo not given): the AC50 is, setting by setting: under setting [2], 1 µM [falling, single point]; under setting [1], 0.794 µM [falling, partial curve, poor fit].

As to `COCC(=O)N1CCc2nc(-c3ccc(OC)cc3C)c3c(c2C1)CO[C@@H](c1ccccc1)C3`, the AC50 was 5.62 µM [falling, single point] under setting [2] and 0.355 µM [falling, partial curve] under setting [1].

For the compound `CC(C)(C)c1nnc2sc(SCC(=O)c3ccc(Cl)cc3)nn2c1=O`, the AC50 under setting [2] was 35.5 µM [rising, single point] and the concentration at half-maximal activity (AC50) under setting [1] was 35.5 µM [rising, single point].

As to `C(=N\Nc1ncnc2sc3c(c12)CCC3)/c1ccncc1`, the AC50 is, setting by setting: under setting [2], 0.0891 µM [falling, partial curve, poor fit]; under setting [1], 0.0562 µM [falling, partial curve, poor fit].

Turning to `O=c1[nH]c(/C(Cl)=C/c2cc(Cl)ccc2O)nc2cc(Cl)ccc12`, the AC50 is, setting by setting: under setting [2], 35.5 µM [falling, single point]; under setting [1], 2.24 µM [rising, single point].

Turning to `O=C(Cc1ccccc1)N/N=C/c1cccn1-c1ccc([N+](=O)[O-])cc1`, the AC50 is, setting by setting: under setting [2], 0.2 µM [rising, full curve, poor fit]; under setting [1], 22.4 µM [rising, single point].

For `Cc1ccc(-c2nc3ncccn3c2NC2CCCC2)o1`, the AC50 under setting [2] is 0.398 µM [falling, full curve, poor fit].

`COc1cc(Cl)c(C)cc1NC(=O)CSc1cc(-c2ccccc2)nc(C)n1`: the AC50 is 0.224 µM [rising, partial curve, poor fit] under setting [2] and 3.98 µM [rising, partial curve] under setting [1].

Take `Cc1ccc(Cn2nnnc2CN2CCC(c3nc4ccc(Cl)cc4[nH]3)CC2)cc1`: the AC50 under setting [1] is 0.447 µM [rising, full curve, poor fit].

As for `CC(C)(C)c1ccc(CN(Cc2ccccc2)C(c2ccccn2)c2nnnn2C(C)(C)C)cc1` (stereo not given), the AC50 was 11.2 µM [rising, partial curve, poor fit] under setting [2] and 14.1 µM [rising, partial curve] under setting [1].

With `O=C1C2C3C=CC(C3)C2C(=O)N1/N=C/c1cc(Br)cc([N+](=O)[O-])c1O` (stereo not given), under setting [1], the AC50 is 14.1 µM [rising, single point].

With `COc1ccc(C(=O)CSc2nnc(CNc3ccc(C)cc3C)n2Cc2ccco2)cc1`, the AC50 under setting [1] is 25.1 µM [rising, single point].

For `CCN(CC(=O)NC(C)(C)C)C(=O)c1ccc(Br)cc1`, under setting [1], the AC50 is 0.00447 µM [falling, full curve, poor fit].

As for `CCCNc1nc(Nc2ccc(C)cc2)nc(N2CCCC2)n1`, the AC50 under setting [1] was 14.1 µM [rising, single point].

For the compound `COc1ccc(-c2nc(C)c(CCNC(=O)c3c(F)cccc3F)s2)cc1`, the AC50 under setting [1] is 20 µM [falling, single point].

Turning to `Cn1c(=O)n(C)c2cc(S(=O)(=O)Nc3ccccc3)ccc21`, the AC50 by setting is: under setting [2], 35.5 µM [falling, single point]; under setting [1], 12.6 µM [falling, single point].

In the case of `CC(C)Oc1ccc(Cn2c(=O)sc3ccccc32)cc1`, under setting [1], the AC50 was 35.5 µM [rising, single point].

Turning to `CCOC(=O)N1CCC(N2CCN(S(=O)(=O)c3ccc(OC)cc3)CC2)CC1`, under setting [2], the AC50 is 0.01 µM [falling, full curve, poor fit].

Turning to `C/C(=N\NC(=O)c1ccc(CN2CCOCC2)cc1)c1ccc([N+](=O)[O-])cc1`, under setting [1], the AC50 was 0.0794 µM [falling, full curve, poor fit].

On to `O=C(Nc1ccc(S(=O)(=O)Nc2ccccc2)cc1)c1ccc(CN2CCOCC2)cc1`, for which the AC50 by setting is: under setting [2], 2.51 µM [falling, full curve, poor fit]; under setting [1], 2.51 µM [falling, full curve, poor fit].

For `COc1ccc(OC)c(NC(=O)CSC2=Nc3ccccc3C3=NC(CC(=O)NCc4ccc(F)cc4)C(=O)N23)c1` (stereo not given), the AC50 under setting [2] was 12.6 µM [rising, single point].

With `O=C(OCCNc1nc(-c2ccccc2)nc2ccccc12)c1ccncc1`, the AC50 under setting [1] is 0.0355 µM [rising, full curve, poor fit].

For `O=C(CN1CCN(Cc2ccc(Cl)cc2)C1=O)NCCCN1CCN(c2ccc(F)cc2)CC1`, the AC50 is 14.1 µM [rising, single point] under setting [2] and 14.1 µM [rising, single point] under setting [1].

`O=C(N/N=C/c1cccc(Oc2ccc([N+](=O)[O-])cc2[N+](=O)[O-])c1)c1cncc(Br)c1`: the AC50 by setting is: under setting [2], 17.8 µM [falling, single point]; under setting [1], 35.5 µM [falling, single point].

In the case of `CC(=O)Nc1cccc(N=NN2CCCCC2)c1`, the AC50 under setting [2] was 0.0355 µM [rising, full curve, poor fit].

For `Cc1noc(C)c1-c1ccc2ncnc(Nc3ccc(F)cc3)c2c1`, the AC50 reads like this: under setting [2], 11.2 µM [falling, partial curve]; under setting [1], 14.1 µM [falling, partial curve].

Regarding `CCCCn1c(NC(=O)c2ccco2)c(S(=O)(=O)c2ccc(C)cc2)c2nc3ccccc3nc21`, the AC50 is, setting by setting: under setting [2], 15.8 µM [rising, single point]; under setting [1], 31.6 µM [rising, single point].

Consider `Cc1ccsc1C1C=C(c2cccc(Br)c2)Nc2ncnn21` (stereo not given), for which the AC50 is, setting by setting: under setting [2], 5.62 µM [rising, single point]; under setting [1], 5.62 µM [rising, single point].

On to `COc1ccccc1NC(=O)C(CC=C(Cl)Cl)C(C)=O` (stereo not given), for which the AC50 under setting [2] is 11.2 µM [rising, single point].

In the case of `Fc1ccccc1COc1ccc2ccccc2c1CNc1nn[nH]n1`, the AC50 under setting [1] was 35.5 µM [rising, single point].

Take `COc1ccc(CCNC(=O)c2cc(-c3ccccc3OC)on2)cc1OC`: the AC50 under setting [2] is 11.2 µM [rising, single point] and the concentration at half-maximal activity (AC50) under setting [1] was 15.8 µM [rising, partial curve].

`O=C(NCCOCCNC(=O)OCc1ccccc1)OCc1ccccc1`: under setting [1], the AC50 is 10 µM [falling, partial curve].

For `Cc1c(/C(O)=C2\C(=O)C(=O)N(CCN(C)C)C2c2cccs2)cnn1-c1ccccc1` (stereo not given), the AC50 under setting [1] was 31.6 µM [rising, single point].

`N#C/C(=C(\O)CCl)c1nnc2n1CCCCC2`: the AC50 under setting [1] is 0.02 µM [falling, full curve, poor fit].

On to `Cc1c(Nc2nc(-c3cccc([N+](=O)[O-])c3)cs2)c(=O)n(-c2ccccc2)n1C`, for which, under setting [1], the AC50 is 3.16 µM [falling, full curve].

On to `CCOc1ccccc1NC(=O)CCNC(=O)c1ccc(Cl)cc1`, for which, under setting [2], the AC50 is 35.5 µM [rising, single point].

In the case of `COc1ccc(Cn2c(/C=C/c3ccccc3)nc3ccccc32)cc1`, the AC50 runs as follows: under setting [2], 10 µM [falling, partial curve]; under setting [1], 11.2 µM [falling, partial curve].

In the case of `CCOC(=O)C1CCCN(Cc2nc3ccc([N+](=O)[O-])cc3c(=O)n2-c2ccc(OC)cc2OC)C1` (stereo not given), the AC50 under setting [1] is 22.4 µM [rising, partial curve, poor fit].
